The record followed here is publication PMC11967818.

By UniProt entry, the sequences of proteins in these tests, tags left out.
UniProt Q9Z204: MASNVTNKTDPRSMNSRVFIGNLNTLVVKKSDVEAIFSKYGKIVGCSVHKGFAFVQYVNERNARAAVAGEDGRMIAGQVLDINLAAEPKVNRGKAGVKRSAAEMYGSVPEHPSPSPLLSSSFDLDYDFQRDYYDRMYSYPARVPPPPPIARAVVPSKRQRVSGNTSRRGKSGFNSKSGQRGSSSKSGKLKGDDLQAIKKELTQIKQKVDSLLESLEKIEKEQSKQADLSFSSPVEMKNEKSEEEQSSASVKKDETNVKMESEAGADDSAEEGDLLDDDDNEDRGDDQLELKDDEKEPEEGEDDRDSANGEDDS
UniProt P70372: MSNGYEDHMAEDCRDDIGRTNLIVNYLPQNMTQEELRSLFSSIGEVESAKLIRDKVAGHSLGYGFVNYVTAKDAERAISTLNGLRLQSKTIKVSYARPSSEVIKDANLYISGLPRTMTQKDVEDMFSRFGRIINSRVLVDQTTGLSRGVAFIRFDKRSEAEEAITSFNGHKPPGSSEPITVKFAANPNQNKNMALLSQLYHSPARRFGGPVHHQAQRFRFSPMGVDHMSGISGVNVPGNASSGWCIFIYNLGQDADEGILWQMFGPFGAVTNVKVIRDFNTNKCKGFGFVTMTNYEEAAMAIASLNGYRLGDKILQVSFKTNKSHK
UniProt Q6P4T2: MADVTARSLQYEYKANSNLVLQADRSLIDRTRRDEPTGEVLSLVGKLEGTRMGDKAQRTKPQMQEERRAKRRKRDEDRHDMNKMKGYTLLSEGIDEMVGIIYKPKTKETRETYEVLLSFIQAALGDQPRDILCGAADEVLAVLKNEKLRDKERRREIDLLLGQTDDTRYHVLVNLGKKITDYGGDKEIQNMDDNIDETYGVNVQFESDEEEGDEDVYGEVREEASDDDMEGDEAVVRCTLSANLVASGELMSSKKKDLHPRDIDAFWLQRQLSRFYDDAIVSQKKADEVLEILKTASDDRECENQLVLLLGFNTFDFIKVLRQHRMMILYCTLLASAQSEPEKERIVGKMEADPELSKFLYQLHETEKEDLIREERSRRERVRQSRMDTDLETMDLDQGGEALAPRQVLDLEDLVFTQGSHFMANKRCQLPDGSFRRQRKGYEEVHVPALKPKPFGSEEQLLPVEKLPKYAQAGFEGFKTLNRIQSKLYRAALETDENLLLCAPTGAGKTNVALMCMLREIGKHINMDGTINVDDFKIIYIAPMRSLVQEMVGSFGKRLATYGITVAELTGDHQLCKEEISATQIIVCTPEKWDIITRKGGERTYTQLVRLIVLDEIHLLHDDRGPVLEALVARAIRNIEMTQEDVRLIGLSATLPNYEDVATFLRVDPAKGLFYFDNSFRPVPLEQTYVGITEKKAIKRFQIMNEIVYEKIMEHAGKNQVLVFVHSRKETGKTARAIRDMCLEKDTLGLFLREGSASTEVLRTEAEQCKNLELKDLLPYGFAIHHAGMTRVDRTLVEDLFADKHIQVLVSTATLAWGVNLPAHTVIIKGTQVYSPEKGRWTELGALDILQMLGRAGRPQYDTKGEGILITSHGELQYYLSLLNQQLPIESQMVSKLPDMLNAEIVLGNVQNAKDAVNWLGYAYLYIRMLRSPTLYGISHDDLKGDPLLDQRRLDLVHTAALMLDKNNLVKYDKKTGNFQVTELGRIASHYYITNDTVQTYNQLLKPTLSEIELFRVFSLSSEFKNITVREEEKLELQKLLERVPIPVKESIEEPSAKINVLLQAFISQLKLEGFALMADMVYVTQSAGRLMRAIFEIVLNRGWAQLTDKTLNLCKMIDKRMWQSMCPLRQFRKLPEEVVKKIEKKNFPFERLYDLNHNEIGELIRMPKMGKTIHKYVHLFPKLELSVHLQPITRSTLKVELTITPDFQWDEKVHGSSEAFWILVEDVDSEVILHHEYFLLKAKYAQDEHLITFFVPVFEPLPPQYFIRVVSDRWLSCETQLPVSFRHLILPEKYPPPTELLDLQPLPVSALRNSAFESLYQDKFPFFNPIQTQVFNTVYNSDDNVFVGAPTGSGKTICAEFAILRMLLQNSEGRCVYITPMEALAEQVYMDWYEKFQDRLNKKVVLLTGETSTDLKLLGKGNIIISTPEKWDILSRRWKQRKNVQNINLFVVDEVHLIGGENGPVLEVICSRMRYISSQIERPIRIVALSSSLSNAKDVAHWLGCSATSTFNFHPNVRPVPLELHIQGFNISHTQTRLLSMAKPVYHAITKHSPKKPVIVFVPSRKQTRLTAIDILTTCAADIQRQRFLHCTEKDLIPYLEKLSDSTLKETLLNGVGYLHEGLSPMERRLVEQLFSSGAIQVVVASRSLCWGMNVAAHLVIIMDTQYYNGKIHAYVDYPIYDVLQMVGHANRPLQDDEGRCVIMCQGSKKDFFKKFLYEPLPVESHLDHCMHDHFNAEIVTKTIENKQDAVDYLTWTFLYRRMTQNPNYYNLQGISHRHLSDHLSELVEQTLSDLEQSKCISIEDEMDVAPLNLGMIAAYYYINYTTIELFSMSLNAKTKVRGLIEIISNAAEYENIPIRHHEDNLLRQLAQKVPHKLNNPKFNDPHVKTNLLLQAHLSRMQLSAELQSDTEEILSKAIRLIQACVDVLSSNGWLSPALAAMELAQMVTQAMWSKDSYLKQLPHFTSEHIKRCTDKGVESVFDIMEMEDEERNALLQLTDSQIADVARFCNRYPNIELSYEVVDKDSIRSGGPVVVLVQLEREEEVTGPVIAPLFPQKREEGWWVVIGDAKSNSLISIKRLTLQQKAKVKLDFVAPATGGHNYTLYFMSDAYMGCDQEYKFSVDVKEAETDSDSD

No constants are given. Whether binding was seen depends on the method and setting. In cells and extracts the contact can be indirect. Some entries that bind do so weakly or less than the wild type.

In this assay the target is hnRNPC (mouse (endogenous in P8 testes)) (UniProt Q9Z204). The assay can be described thus: co-IP; P8 WT mouse testis lysate, treated with or without RNase A (1 ug/mL, 30 min); Protein G magnetic beads with anti-hnRNPC antibody or rabbit IgG, overnight at 4 °C; Western blot of the immunoprecipitates. On the technique in general: In western blotting, separated proteins are transferred to a membrane and probed.

On to HuR (from UniProt P70372 1-326), for which the binding entry is “binds”.

Take SNRNP200 (from UniProt Q6P4T2 1-2136): the binding result was “binds”.
